PMC12706146
These are yes or no findings as the source states them, for the method shown. For part of these data: Binding seen in cells or lysates may run through a third protein. Some binding calls cover weakened binding; strength is not graded here. Tags and fused reporters may be left off the sequences shown. One block for each binder: values may come before it.

Tests used:
[1] = target: T1, His-tagged YgfB (E. coli) (UniProt P0A8C4); assay: pull-down; ligand fishing: 50 ug purified His-YgfB as bait mixed with MG1655 crude extract, held on TALON metal affinity resin, 25 min at 4°C, buffer A (50 mM Tris-HCl pH 8.0, 300 mM NaCl), eluted with 200 mM imidazole; SDS-PAGE with Coomassie; band identified by peptide mapping after in-gel tryptic digestion; only the target purified
T1 sequence: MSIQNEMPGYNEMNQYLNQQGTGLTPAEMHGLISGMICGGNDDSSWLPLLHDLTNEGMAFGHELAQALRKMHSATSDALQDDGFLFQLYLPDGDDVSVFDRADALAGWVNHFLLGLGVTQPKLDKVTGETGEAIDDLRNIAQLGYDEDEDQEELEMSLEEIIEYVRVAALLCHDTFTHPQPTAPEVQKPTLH

[2] = target: T2, YgfB fused with T18 of adenylate cyclase (pUT18c-YgfB) (E. coli) (UniProt P0A8C4); assay: two-hybrid; bacterial two-hybrid (adenylate cyclase T18/T25) in BTH101 cells, LB plate with 1 mM IPTG and 40 ug/ml X-gal, 24 h at 30°C, colour of the cells
T2 sequence: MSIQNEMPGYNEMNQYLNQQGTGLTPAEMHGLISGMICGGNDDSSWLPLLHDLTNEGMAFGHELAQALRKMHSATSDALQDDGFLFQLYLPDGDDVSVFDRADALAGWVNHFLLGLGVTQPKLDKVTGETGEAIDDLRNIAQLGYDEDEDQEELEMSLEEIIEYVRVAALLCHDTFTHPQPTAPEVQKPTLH

[3] = target: T1, His-tagged YgfB (E. coli); assay: pull-down; crude extract of ER2566 overexpressing PssA mixed with crude extract of ER2566 overexpressing His-YgfB, TALON resin, 15 min at 4°C, buffer A (50 mM Tris-HCl pH 8.0, 300 mM NaCl), eluted with 200 mM imidazole; SDS-PAGE with Coomassie

binding [1]: binds
B1: phosphatidylserine synthase PssA (endogenous, MG1655 extract) (enzyme, UniProt P23830 1-451)
chain: MLSKFKRNKHQQHLAQLPKISQSVDDVDFFYAPADFRETLLEKIASAKQRICIVALYLEQDDGGKGILNALYEAKRQRPELDVRVLVDWHRAQRGRIGAAASNTNADWYCRMAQENPGVDVPVYGVPINTREALGVLHFKGFIIDDSVLYSGASLNDVYLHQHDKYRYDRYHLIRNRKMSDIMFEWVTQNIMNGRGVNRLDDVNRPKSPEIKNDIRLFRQELRDAAYHFQGDADNDQLSVTPLVGLGKSSLLNKTIFHLMPCAEQKLTICTPYFNLPAILVRNIIQLLREGKKVEIIVGDKTANDFYIPEDEPFKIIGALPYLYEINLRRFLSRLQYYVNTDQLVVRLWKDDDNTYHLKGMWVDDKWMLITGNNLNPRAWRLDLENAILIHDPQLELAPQREKELELIREHTTIVKHYRDLQSIADYPVKVRKLIRRLRRIRIDRLISRIL

binding [2]: binds
B2: PssA fused with T25 of adenylate cyclase (pKT25-PssA) (enzyme, UniProt P23830 1-451)
chain: MLSKFKRNKHQQHLAQLPKISQSVDDVDFFYAPADFRETLLEKIASAKQRICIVALYLEQDDGGKGILNALYEAKRQRPELDVRVLVDWHRAQRGRIGAAASNTNADWYCRMAQENPGVDVPVYGVPINTREALGVLHFKGFIIDDSVLYSGASLNDVYLHQHDKYRYDRYHLIRNRKMSDIMFEWVTQNIMNGRGVNRLDDVNRPKSPEIKNDIRLFRQELRDAAYHFQGDADNDQLSVTPLVGLGKSSLLNKTIFHLMPCAEQKLTICTPYFNLPAILVRNIIQLLREGKKVEIIVGDKTANDFYIPEDEPFKIIGALPYLYEINLRRFLSRLQYYVNTDQLVVRLWKDDDNTYHLKGMWVDDKWMLITGNNLNPRAWRLDLENAILIHDPQLELAPQREKELELIREHTTIVKHYRDLQSIADYPVKVRKLIRRLRRIRIDRLISRIL

binding [3]: binds
B3: overexpressed PssA (pET24a-PssA) (enzyme, UniProt P23830 1-451)
chain: MLSKFKRNKHQQHLAQLPKISQSVDDVDFFYAPADFRETLLEKIASAKQRICIVALYLEQDDGGKGILNALYEAKRQRPELDVRVLVDWHRAQRGRIGAAASNTNADWYCRMAQENPGVDVPVYGVPINTREALGVLHFKGFIIDDSVLYSGASLNDVYLHQHDKYRYDRYHLIRNRKMSDIMFEWVTQNIMNGRGVNRLDDVNRPKSPEIKNDIRLFRQELRDAAYHFQGDADNDQLSVTPLVGLGKSSLLNKTIFHLMPCAEQKLTICTPYFNLPAILVRNIIQLLREGKKVEIIVGDKTANDFYIPEDEPFKIIGALPYLYEINLRRFLSRLQYYVNTDQLVVRLWKDDDNTYHLKGMWVDDKWMLITGNNLNPRAWRLDLENAILIHDPQLELAPQREKELELIREHTTIVKHYRDLQSIADYPVKVRKLIRRLRRIRIDRLISRIL
